# In the supplement of paper PMC5407854, “Inhibitor of ppGalNAc-T3-mediated O-glycosylation blocks cancer cell invasiveness and lowers FGF23 levels” (eLife, 2017):
# Whole data set: some 1,700 compounds, median “T3 sensor activation Q score (MG/GFP ratio z-score vs DMSO controls)” near 0.25, cut for the highest 2% near 1.9. The list shows a part of the results.
# Tested on: ppGalNAc-T3 sensor
# Test: T3 sensor activation Q score (MG/GFP ratio z-score vs DMSO controls) (SD units); higher = more sensor activation (inhibition of ppGalNAc-T3 glycosylation)
# Settings: HEK293 sensor cells; 10 µM; 6 h
# Procedure: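 Cells were treated with compound at 10 uM for 6 h, then MG/GFP ratio was read by flow cytometry (10,000 cells per well, duplicate wells). Q = (R - R_neg)/SD_neg relative to DMSO vehicle controls; the signal rises when the glycosyltransferase is inhibited.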
row,SMILES,T3 sensor activation Q score
1,CCOC(=O)N1C/C(=C\c2ccccc2)C(=O)/C(=C/c2ccccc2)C1,-0.15
2,COc1cnc(SC)nc1Nc1ccc(C#N)cc1,1.5
3,OC(c1cc(C(F)(F)F)nc2c(Cl)cc(Cl)cc12)C1CCCCN1 (stereo not given),-1.2
4,C[C@@H](CN1CC(=O)NC(=O)C1)N1CC(=O)NC(=O)C1,-0.6
5,Cc1nc(/N=C(/N)N(C)C)[nH]c(=O)c1C,1.05
6,Fc1ccc(-c2cc(-c3cccs3)cc(-c3ccccc3)n2)cc1,0.45
7,Oc1cc(CNC2CCCCC2)c(O)cc1CNC1CCCCC1,0.65
8,CCOc1nc(OCC)c2cnn(C)c2n1,0.55
9,NC(=O)c1ccc(N=Nc2c(O)c3ccccc3[nH]c2=O)cc1,0.5
10,NC(N)=NCCCS(=O)(=O)Nc1ccc(Nc2c3ccccc3nc3cc([N+](=O)[O-])ccc23)cc1,-0.75
11,O=c1c2ccccc2ncn1-c1ccc(Cl)cc1,0.25
12,S=C1NC2(CCCCCC2)NN1c1ccccc1,0.5
13,COC1OC(O)C(NC(=O)C(F)(F)F)CC1O (stereo not given),1.55
14,Nc1cc([N+](=O)[O-])ccc1N1C(=O)CCCC1=O,0.9
15,CCc1c(N=O)c(-c2ccccc2)n(O)[n+]1[O-],1
16,COC(=O)c1c(-c2ccccc2)[nH]c(-c2nccc3ccccc23)c1C(=O)OC,0.5
17,O=C(O)c1ccc2c(c1Nc1ccccc1)C(=O)c1ccccc1C2=O,0.8
18,O=NN(CCCl)C(=O)NC1CCCCC1,0.45
19,CSc1nc(=O)[nH]nc1Sc1ccccc1,-1.1
20,Cc1cccc(Nc2sc(C(=O)c3cc4cc(Cl)ccc4o3)c(N)c2C#N)c1,1.05
21,Cc1ccc(NC(=O)Nc2c(Cl)cccc2Cl)cn1,-0.65
22,Cn1c(=O)c2c(nc(Cc3ccccc3)n2C)n(C)c1=O,1.9
23,O=C1c2ccccc2C(=O)c2[nH]cnc21,1.1
24,COC(=O)c1ccc(C(=O)OC)c(=O)[nH]1,1.65
25,Cc1cc(=O)c2c(C)ccc(C)c2[nH]1,-0.45

row,SMILES,T3 sensor activation Q score
1,Cc1nc2cc[nH]n2c(=O)c1CCc1ccccc1,0.05
2,COc1ccccc1/C=C/C(=O)/C=C/c1ccccc1O,-1.3
3,COC(=O)Cc1[nH]c(=S)[nH]c1C(=O)OC,0.85
4,CC(=O)[C@H]1CC[C@H]2[C@@H]3CCC4=CC(=O)C=C[C@]4(C)[C@H]3C(=O)C[C@]12C,1.7
5,CC(=O)[C@H]1CC[C@H]2[C@@H]3CCC4=CC(=O)CC[C@]4(C)[C@@]3(F)[C@@H](O)C[C@]12C,0.55
6,N#CC1=C(Nc2ccccc2Cl)SC(c2ccccc2O)NC1=O (stereo not given),-0.7
7,CN(C)S(=O)(=O)Nc1cccc(Br)c1,1.8
8,CC1CCC(C(C)C)C(NC(=O)c2ccncc2)C1 (stereo not given),-0.3
9,CN(C)S(=O)(=O)Nc1ccccn1,0.55
10,O=C1C2C3C=CC(CC3)C2S(=O)(=O)C2C3C=CC(CC3)C12 (stereo not given),0.5
11,C=CCNC(=S)NCC=C,0.35
12,Cc1cccc(NC(=S)Nc2cccc(C)n2)n1,0.45
13,ClN=C1C=CC=CC1=NCl,-0.05
14,N#CC1=C(Nc2ccccc2Cl)SC(c2ccncc2)NC1=O (stereo not given),0.1
15,CN(C)N1C(=O)c2c(Cl)c(Cl)c(Cl)c(Cl)c2C1=O,0.75
16,c1ccc(-c2ccc3c(c2)NC(C2Nc4cc(-c5ccccc5)ccc4O2)O3)cc1 (stereo not given),-0.05
17,Cc1cc(NC(=O)Nc2cc(Cl)ccc2C)no1,0.5
18,Clc1nnc2c3ccccc3ccn12,0.05
19,Cc1nc(N)[nH]c(=O)c1CCCNc1ccc(CCC2(CCl)OCCO2)cc1,-0.35
20,O=C1OCC/C1=C\c1ccc(O)cc1,0.05
21,O=C(Cn1ccc(=O)[nH]c1=O)Nc1ccc(C(=O)O)c(O)c1,0.45
22,C=C(C)CN=CC1(C)CCC(C)=CO1 (stereo not given),-0.5
23,Nc1cccc2c1CN(C1CCC(=O)NC1=O)C2=O (stereo not given),-0.35
24,c1ccc2sc(SCSc3nc4ccccc4s3)nc2c1,-1.5
25,CCCNC(=O)Nc1ccc(C)cc1C,1.4

# Quoted at random: four records from the list
row,SMILES,T3 sensor activation Q score
6,N#CC1=C(Nc2ccccc2Cl)SC(c2ccccc2O)NC1=O (stereo not given),-0.7
16,c1ccc(-c2ccc3c(c2)NC(C2Nc4cc(-c5ccccc5)ccc4O2)O3)cc1 (stereo not given),-0.05
18,Clc1nnc2c3ccccc3ccn12,0.05
15,CN(C)N1C(=O)c2c(Cl)c(Cl)c(Cl)c(Cl)c2C1=O,0.75

# Remaining list, next part.

row,SMILES,T3 sensor activation Q score
1,S=c1[nH]c2cc(-c3ccccc3)ccc2o1,0.8
2,NC(N)=Nc1nc2ccc([N+](=O)[O-])cc2[nH]1,-0.35
3,C(=C\c1ccc(/C=C/c2ccccc2)nn1)/c1ccccc1,1.1
4,Cc1ccc2nc(Cl)cc(=O)n2c1,1.45
5,COc1ccc(C(=S)N2CCN(c3cccc(Cl)c3)CC2)cc1,-0.25
6,CCOC(=O)c1nnsc1-c1ccc(-c2snnc2C(=O)OCC)cc1,0.95
7,CNC(=O)Nc1ccc(S(N)(=O)=O)cc1,1.6
8,O=C(Oc1ccc[nH]c1=O)c1cccc(Cl)c1,0.35
9,Nc1nc(Nc2ccccc2)n[nH]1,-0.55
10,O=C(Nc1ccc2ncccc2c1)Nc1ccc2ncccc2c1,0.15
11,COc1ccc(N=Nc2c(N)n[nH]c2N)cc1,-0.2
12,Oc1ccc(N=Nc2nccs2)c(O)c1,-1.2
13,Cc1nnc(Cc2ccccc2)c2n[nH]c(C)c12,0.2
14,NNC(=O)CNc1cccc(Br)c1,0.75
15,O=C(Nc1cc(-c2ccccc2)[nH]n1)c1ccc(Cl)cc1,-0.1
16,COC(=O)c1c[n+]([O-])ccc1OC,-0.5
17,COc1ccc(C(=S)N2CCN(c3ccccc3Cl)CC2)cc1OC,0.75
18,O=C1C(Cl)=C(O)C2(Cl)C(Cl)=C(Cl)C12Cl (stereo not given),0.7
19,Cc1cccc2cc3cccc(C)c3nc12,-0.55
20,CCOC(=O)c1cnc(SCC)[nH]c1=O,0
21,O=C(NCc1ccco1)Nc1ccc([N+](=O)[O-])cc1,0
22,O=C(O)C1=NN(c2cc(Cl)c(S(=O)(=O)O)cc2Cl)C(=O)C1,0.8
23,NC(=O)c1ncn2c(=O)n(CCCl)nnc12,0.6
24,CC1OC1c1ccc(-c2ccc(C3OC3C)cc2)cc1 (stereo not given),0.7
25,CN(C)CCCN1c2ccc3ccccc3c2Sc2cccc(Cl)c21,-0.4

row,SMILES,T3 sensor activation Q score
1,CC(=O)O[C@H]1CC[C@@]2(C)[C@@H](CC[C@@H]3[C@@H]2CC(=O)[C@@]2(C)[C@H]3C[C@@H]3CC(C)=CC(=O)[C@@H]32)C1,-1.1
2,CCCCCCC(C)OC(=O)c1ccccc1C(=O)O (stereo not given),0.05
3,Clc1cc2c(c(CSc3nc4ccccc4n4cccc34)c1)OCOC2,1.35
4,O=C(Nc1ccc(Br)cc1)Nc1ccccc1Cl,1.5
5,CCC(C)Oc1nc2c(c(=O)n(C)c(=O)n2C)n1C (stereo not given),0.9
6,C=CCN(CC=C)C(=O)Nc1cc(OC)ccc1OC,-0.15
7,COc1ccc(OC(=O)Nc2ccc([N+](=O)[O-])cc2OC)cc1,-0.7
8,C[C@]12CC[C@@H]3c4ccc(OCC(=O)O)cc4CC[C@H]3[C@@H]1CCC2=O,-1.05
9,O=C(Oc1ccccc1)N(c1ccccc1)c1ccccc1,0.75
10,COC(=O)C1=CC(=O)N2CCN=C2S1,0.25
11,COC(=O)CC1OCC=C2CN3CCC45C6=CC(=O)C(=O)C([N+](=O)[O-])=C6NC4C1C2CC35 (stereo not given),-0.2
12,CCCCCC(=O)N1CCCCC1,-1.55
13,CN(C)c1ccc(N=Nc2ccccn2)cc1,-0.95
14,N[C@H](C(=O)O)[C@H]1ON=C(Cl)[C@H]1O,-0.15
15,O=C(/C=C/c1ccccc1)CC(c1ccccc1)N1CCOCC1 (stereo not given),0.15
16,Nc1ccn(C2OC(CCl)C(O)C2O)c(=O)n1 (stereo not given),1.2
17,O=[N+]([O-])c1ccc(/C=C/c2ccncc2)cc1,1.1
18,Nc1nc2[nH]cc(CCc3ccc(C(=O)N[C@@H](CCC(=O)O)C(=O)O)cc3)c2c(=O)[nH]1,-0.35
19,CN(C)C(=O)OCC1COc2ccccc2O1 (stereo not given),-0.85
20,CCOC(=O)N1CCN(Cc2c(O)ccc3ccccc23)CC1,-0.95
21,O=C(C(Cl)Cl)N1CC2CCC(CC2)C1,1.4
22,COc1cc2ncnc(Nc3ccc(F)c(Cl)c3)c2cc1OCCCN1CCOCC1,1.2
23,c1ccc(Nc2cccc3c(Nc4ccccc4)cccc23)cc1,-0.45
24,CC1=NC2=CC=CC3=NC(C(Cl)(Cl)Cl)=NC(=N1)N23,-0.55
25,C=CCNC(=S)Nc1cccc([N+](=O)[O-])c1,0.45

row,SMILES,T3 sensor activation Q score
1,O=c1[nH]nc(-c2cc(-c3ccccc3)nc3ccccc23)o1,-0.35
2,S=c1[nH]ccn1-c1c(Cl)cccc1Cl,0.95
3,CSc1nc(Cl)cc(=O)[nH]1,0.55
4,CN(C)c1ccc(/C=C/c2ccc3ccccc3n2)cc1,0.2
5,CC(C)NC(=O)c1ccc(C(C)C)cc1,-0.3
6,CC/C(=C(\c1ccccc1)c1ccc(OCCN(C)C)cc1)c1ccccc1,-1.55
7,CCc1oc2ccccc2c1C(=O)c1cc(Br)c(O)c(Br)c1,-0.35
8,C=C(C)C(=O)Nc1ccc(NC(C)C)cc1,0.85
9,Cc1cccc(C)c1NC(=O)Nc1ccc(S(N)(=O)=O)cc1,1.6
10,O=C(c1ccccc1)c1ccccc1C(=O)c1ccccc1,1.4
11,NS(=O)(=O)c1cc2c(cc1Cl)NC(CC1CCCC1)NS2(=O)=O (stereo not given),0.05
12,CC(C)c1cc(C(F)(F)F)nc(NNc2nc(C(C)C)cc(C(F)(F)F)n2)n1,-1.85
13,COc1ccc2[nH]c(-c3ccccc3)cc2c1,-1.15
14,CCC12CCCN3CCc4c(n(c5ccccc45)C(O)(C(=O)OC)C1)C32 (stereo not given),1.8
15,NC(=O)NC1NC(=O)NC1=O (stereo not given),1.65
16,CCCSc1nc2c(c(=O)n(C)c(=O)n2C)n1C,0.5
17,Cc1cc2cc3c(=O)[nH]c(=O)[nH]c3nc2cc1C,0.35
18,O=C(/C=C/c1ccc(O)c(O)c1)OC1[C@H](O)CC(OC(=O)/C=C/c2ccc(O)c(O)c2)(C(=O)O)C[C@H]1O (stereo not given in full),0.55
19,O=C1c2cccc3cc([N+](=O)[O-])cc(c23)C(=O)N1CCN1CCCC1,0.6
20,CCOc1ccc(/C=C2\NC(=S)NC2=O)cc1,-1.8
21,O=[N+]([O-])c1cccnc1Oc1cc(Cl)c(Cl)cc1Cl,0.75
22,CC1(C)CC(Nc2ccc(Nc3ccccc3)cc2)CC(C)(C)N1,1.85
23,COc1cc2c(O)cc(C(=O)O)c(-c3cc(OC)c(OC)c(OC)c3)c2cc1OC,-0.25
24,CSC(=O)NC(=O)NC(=O)c1ccc([N+](=O)[O-])cc1,1.45
25,Cc1nc([C@H]2CC[C@H]3[C@@H]4CCC5=CC(=O)CC[C@]5(C)[C@H]4CC[C@]23C)cs1,-0.1

# Grouped by structure, the entries above containing bromine (4)
row,SMILES,T3 sensor activation Q score
7,CN(C)S(=O)(=O)Nc1cccc(Br)c1,1.8
14,NNC(=O)CNc1cccc(Br)c1,0.75
4,O=C(Nc1ccc(Br)cc1)Nc1ccccc1Cl,1.5
7,CCc1oc2ccccc2c1C(=O)c1cc(Br)c(O)c(Br)c1,-0.35
